Data: patent US8039501B2, “Synephrine derivatives useful as anti-inflammatory agents” (Universiteit Gent, priority 2005, dated 2011)
At least one compound was matched to its structure with a doubt left. Some entries share one result that the patent states for a list of compounds.

Experiments:
L929sA fibroblasts = assay: MTT test, cell viability of L929sA fibroblasts; type: cell-based, murine; details: 10^−5 M; within 48 hours; FIG. 5B
Procedure: (§1) The MTT test is a standard assay addressing cell toxicity of a compound. It is based on the principle that after 3-4 hours of cell incubation with MTT (3-(4,5-dimethylthiazole-2-yl)-2,5-diphenyl tetrazolium bromide) so-called purple formazan crystals develop in living and early apoptotic cells. Dead cells don't produce formazan crystals.
(§2) Different cell lines were tested. Unless indicated differently, A549 human lung epithelial cells (derived from lung carcinoma) and L929sA murine fibroblast cells were cultured in DMEM with 10% FCS, 100 U/ml penicillin and 100 μg/ml streptomycin. Unless indicated differently, the human multiple myeloma cell lines L363, U266 and MM1.S were cultured in RPMI 1640 with Glutamax-I, supplemented with 10% FCS, 100 U/ml penicillin and 100 μg/ml streptomycin. Cells were seeded at 5000 cells/well (for adherent A549 and L929sA cells) or at 10000 cells/well (for the multiple myeloma lines in suspension) in 96 well plates. […] After overnight incubation at room temperature, the optical densities at 590 nm were measured. Results are illustrated in FIGS. 2 to 6 and are expressed as percentage of viable cells as compared to vehicle-treated controls.
In a further MTT test, the activity of the synephrine derivatives on the inhibition of cell viability of non-immune cells was measured. […]

[1] = tested on: pE-selectin-Luc (E-selectin promoter); assay: pE-selectin-Luc reporter gene assay in TNF-induced L929sA cells; type: cell-based, mouse; details: 1 microM, FIG. 1
Excerpt: L929sA mouse fibroblast cells were stably transfected with pE-selectine-Luc (also referred to as pELAM-luc) by the calcium phosphate precipitation procedure described by De Bosscher et al. in Proc. Natl. Acad. Sci. USA (1997) 94, 13504-13509. The co-transfected plasmid pPGKβGeobpA, conferring resistance to G418 and expressing constitutive β-galactosidase enzymatic activity, was used as an internal control. L929sA cells were transiently transfected by the DEAE-dextran transfection method described by De Bosscher et al. (cited supra).
Recombinant murine tumor necrosis factor (TNF) was produced according to a method standard in the art. Dexamethasone (hereinafter abbreviated as DEX) commercially available from Sigma, and 2-(4-acetoxyphenyl)-2-chloro-N-methyl-ethylammonium chloride (hereinafter abbreviated as compound A) was synthesized according to Louw et al. in Biochemical Pharmacology (1997) 53, 189-197). A stock solution was prepared in ethanol (for DEX) or DMSO (for both comparative compound A and for the compound of example 6 according to this invention, i.e. 1-[4-(benzoyloxy)phenyl]-2-[(tert-butoxy-carbonyl)-methylamino]ethyl-1H-imidazole-1-carboxylate), aliquoted and stored at −70° C.
Induction was performed in triplicate for each independent experiment, which was carried out at least twice. […]

[2] = tested on: FLS cells (fibroblast-like synoviocytes); assay: Q-PCR/ELISA gene expression in primary FLS of RA patients; type: cell-based, human
Procedure: CpdA was synthesized as described previously. […] They were sacrificed and livers were isolated. […] Gene expression of HPRT was used for normalization. […] Gene expression of HPRT was used for normalization. […] Gene expression of HPRT was used for normalization. Statistical significance was determined by one way anova. […] Gene expression of HPRT was used for normalization. […] Gene expression of HPRT was used for normalization. Statistical significance was determined by one way anova. […] Statistical significance was determined with a Kruskal-Wallis test.
Western blot analysis was performed on total protein extracts with an anti-GR(H-300) antibody. The detection of ERK was used as a loading control. After 8 days of treatment liver samples were taken from the PBS, DEX (20 μg) or CpdA (300 μg) treated DBA/1 mice (FIG. 22B). Q-PCR was performed for the detection of GR in the different samples. Statistical significance was determined with a Mann-Whitney Test. FLS were pre-treated with solvent, DEX (1 μM) or CpdA (10 μM) for 1 hour (set-up 1) or 24 hours (set-up 2), as indicated in the figures. Afterwards, TNF (2000 units/ml) was added for 6 h. Western blot analysis was performed on total extracts with an anti-GR(H-300) antibody (FIG. 19A). Detection of ERK was used as a loading control. […] Statistical significance was determined by one way anova. […]

MCF7 breast cancer cells = details: 10^−6 M
Procedure: In further experiments, nylon arrayfilter hybridization experiments were performed. cDNA array analyses were carried out according to the instructions of the manufacturer (SuperArray Simplicity GEArray™ KIT) on the cDNA arrays cancer pathway finder and stress and toxicity array. Total RNA, obtained by the protocol as described herein above, was used as a template for [α−^33P]-cDNA probe synthesis using the following steps:
A second array hybridization experiment was performed on Human Stress and Toxicity Pathway Finder GEarray Q series. The same protocol was followed as for the array hybridization experiment on the Human Cancer Pathway Finder described herein above.

[3] = tested on: B16BL6 melanoma, PG19 melanoma and Lewis Lung Carcinoma; assay: In vivo melanoma model, subcutaneous tumors in mice
Procedure: In vivo melanoma model • Cells of B16BL6 melanoma, PG19 melanoma and Lewis Lung Carcinoma are kept in culture in DMEM supplemented with fetal calf serum, antibiotics and L-glutamine. Cells are harvested, washed three times in LPS-free PBS, and brought to a density of 6×10^6/ml (B16BL6) or 20×10^6/ml (PG19, EL4 and LLC). 100 μl of the cell suspension is injected subcutaneously into shaven, right hind limbs of the mice. When the tumors reach a size of 50-70 mm^2, daily treatment is started with dexamethasone (DEX), hydrocortisone (HYDRO), compound A (CpdA) or its analogues (intraperitoneally (i.p.) or in drinking water). DEX, HYDRO are diluted in PBS; CpdA is diluted in 20% ethanol. The smaller and larger diameters of the tumor are measured daily with an electronic caliper. Tumor size index (TSI) is defined in mm^2 as (a)×(b), (a) being the longest diameter of the tumor and (b) the diameter perpendicular to (a). […] Each mouse receives daily either PBS or a specific dose of DEX, ranging from 5 μg to 200 μg. […]. […] Toxicity and efficacy of CpdA and analogues will be evaluated.

IL-6 = assay: Inhibition of autocrine IL-6 secretion in U266 cells; type: cell-based, human; details: 10^−9M, FIG. 4B
[4] = tested on: multiple myeloma cells U266; assay: MTT test, cell viability of U266 cells; type: cell-based, human; details: serum-containing growth medium; at the concentrations tested; FIG. 3A
Procedure: as §1
as §2, with “streptomycin.” for “streptomycin. Cells were seeded at 5000 cells/well (for adherent A549 and L929sA cells) or at 10000 cells/well (for the multiple myeloma lines in suspension) in 96 well plates.”
The MTT test was further extended to include alternative synephrine derivatives and a range of multiple myeloma cell lines for which the results are illustrated by FIGS. 3A, 3B and 4A. […] After 48 hours incubation at room temperature, the optical densities at 590 nm were measured. Results are expressed as percentage of viable cells as compared to vehicle-treated controls.

| SMILES | Block of L929sA cell viability (L929sA fibroblasts) | Inhibition of the expression of E-selectin [1] | Repression of TNF-induced MCP-1, IL-8 and IL-6 after prolonged treatment (set-up 2) ([2]; 1 μM pre-treated 24 hours, TNF 2000 units/ml 6 h, FIG. 19) | Transactivation function of GR (GRE-driven PCOLCE2 and GS expression) ([2]; 1 μM, prolonged treatment, FIG. 20) | Gene response of CRYAB, DNAJA1, pcna, mdm2 (MCF7 breast cancer cells) | Levels of heat shock genes hspA1A, 1B (decrease) (MCF7 breast cancer cells) | Tumor growth ([3]; daily doses ranging from 5 μg to 200 μg) | Tumor growth ([3]; daily intraperitoneous administration of 100 μg) | Tumor growth as measured by tumor size index ([3]; dose of 50 μg daily) | Tumor weight by the end of treatment ([3]; dose of 50 μg daily) | Tumor growth ([3]; in the drinking water (100 mg/l)) | Inhibition of autocrine IL-6 secretion (IL-6) | Effect on cell viability of U266 cells [4] |
| --- | --- | --- | --- | --- | --- | --- | --- | --- | --- | --- | --- | --- | --- |
| CN(CC(OC(=O)n1ccnc1)c1ccc(OC(=O)c2cccc3ccccc23)cc1)C(=O)OC(C)(C)C (stereo not shown) [Naphth, 1-[4-(1-naphthoyloxy)phenyl]-2-[(tert-butyloxycarbonyl)(methyl)amino]ethyl 1H-imida-zole-1-carboxylate] | not more than 20% | – | – | – | – | – | – | – | – | – | – | – | – |
| C[C@@H]1C[C@H]2[C@@H]3CCC4=CC(=O)C=C[C@]4(C)[C@@]3(F)[C@@H](O)C[C@]2(C)[C@@]1(O)C(=O)CO [DEX, dexamethasone, reference compound] | – | inhibit the expression of E-selectin | abolishment of pro-inflammatory cytokine (MCP-1, IL-8 and IL-6) repression | still able to induce the transactivation function of the receptor | increased gene response | decreases levels | All doses show some effect on tumor growth | inhibits tumor growth significantly | markedly inhibits tumor growth | reduces tumor weight | slows down tumor growth | significantly inhibited IL-6 expression | did not affect cell viability |
